In PubChem BioAssay AID1671190 (National Center for Advancing Translational Sciences (NCATS), 2021):
The campaign covered roughly 580,000 compounds. About 6,100 (1.1%) were called active. Inconclusive results, whose numbers are uncertain, are shown with a selection of clear calls. Calls come from the whole dose curve; as a rule, active = well fitted inhibition curve with a large enough effect; inconclusive = small, poorly fitted or top-dose-only effect, or another doubt; inactive = no such curve, though single readings can be large or run the other way. Potencies of inconclusive entries are doubtful fits and often do not repeat.

Sequences of proteins named here, by UniProt entry; tags and fusion partners are left off. A change or cut given only in a name is not applied to a line headed by its entry.
UniProt P18054: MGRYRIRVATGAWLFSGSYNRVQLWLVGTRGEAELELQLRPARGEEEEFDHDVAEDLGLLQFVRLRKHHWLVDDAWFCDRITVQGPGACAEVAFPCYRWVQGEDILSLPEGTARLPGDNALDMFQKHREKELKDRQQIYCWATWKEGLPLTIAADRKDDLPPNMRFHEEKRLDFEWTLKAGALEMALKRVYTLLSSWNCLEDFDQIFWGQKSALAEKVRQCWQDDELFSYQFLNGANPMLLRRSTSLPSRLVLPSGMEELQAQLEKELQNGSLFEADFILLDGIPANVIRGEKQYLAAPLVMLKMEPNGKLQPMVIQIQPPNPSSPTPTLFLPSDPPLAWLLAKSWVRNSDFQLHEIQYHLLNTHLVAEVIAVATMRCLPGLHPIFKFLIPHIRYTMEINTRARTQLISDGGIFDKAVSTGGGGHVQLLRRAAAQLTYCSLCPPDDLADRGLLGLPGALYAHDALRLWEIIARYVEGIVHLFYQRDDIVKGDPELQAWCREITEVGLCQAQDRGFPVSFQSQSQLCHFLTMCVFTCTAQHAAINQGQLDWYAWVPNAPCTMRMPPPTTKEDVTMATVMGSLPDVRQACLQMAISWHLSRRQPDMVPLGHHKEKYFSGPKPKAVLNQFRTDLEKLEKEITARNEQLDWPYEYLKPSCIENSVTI

The compounds below were run against Polyunsaturated fatty acid lipoxygenase ALOX12 (Homo sapiens) (UniProt P18054) (assay: Primary qHTS assay for inhibitors of human arachidonate 12S-lipoxygenase (ALOX12): Round 2). Details: purified 12hLO, xylenol orange hydroperoxide absorbance; activity change, negative = inhibition: at 108 µM (top of the series) unless noted.
Method in brief: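 Hydroperoxide product was detected by ferrous iron/xylenol orange as the 573 to 405 nm absorbance ratio. Arachidonic acid at 40 uM (final) was turned over for 30 min at room temperature by 150 nM human 12hLO, pH 7.0 Hepes buffer, after 15 min compound preincubation.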
% is set by controls: 0 for no effect and ±100 for the full control effect; potency is the fitted concentration of half-maximal effect.

Question: With `CCOC(=O)CNC(=O)C(Cc1ccccc1)NC(=O)OCc1ccccc1` (centres undefined) as the compound, how does the Potency read?
Answer: Its Potency is “inactive”.

Question: `O=S(=O)(/N=c1\ssc(-c2ccccc2)c1Cl)c1ccccc1` was tested. Which Potency did it give?
Answer: The Potency was “inactive”.

Question: How did the Potency turn out when `CC(C)n1nc(C(=O)Oc2cc(Cl)ccc2Cl)c2ccccc2c1=O` was run?
Answer: The Potency was inconclusive: 11.2 µM [inhibitor, partial curve, poor fit].

Question: Which Potency does the source give for `CCCNC(=O)c1cccc(CNCc2cccnc2)c1` here?
Answer: The Potency was inconclusive: 31.6 µM [inhibitor, partial curve, poor fit].

Question: `O=C1NCc2ccccc2CC12CCCN2Cc1cccc(Cl)c1` (centres undefined) was tested. Which Potency did it give?
Answer: Its Potency is inconclusive: 100 µM [inhibitor, partial curve, poor fit].

Question: How did the Potency turn out when `Cc1ccc2[nH]c(=O)c(CN(Cc3cccs3)C(=S)NCc3ccco3)cc2c1` was run?
Answer: Its Potency is inconclusive: 5.01 µM [inhibitor, full curve, poor fit].

Question: With `COc1cccc(NC(=O)Cn2c(=O)n(-c3cccc(OC)c3)c(=O)c3sc4ccccc4c32)c1` as the compound, how does the activity change, negative = inhibition read?
Answer: The activity change, negative = inhibition was inconclusive: -32.4% [inhibitor].

Question: `CCc1cccc(CC)c1NC(=S)NCc1ccc2[nH]c(C)cc2c1` was tested. Which Potency did it give?
Answer: Its Potency is inconclusive: 39.8 µM [inhibitor, partial curve, poor fit].

Question: With `CCCCNC(=O)CCCN1C(=O)CCn2nc(-c3cccn3C)cc21` as the compound, how does the Potency read?
Answer: The Potency was inconclusive: 100 µM [inhibitor, partial curve, poor fit].

Question: `CC(O)CNc1nc2c(c(=O)n(Cc3ccc(Cl)c(Cl)c3)c(=O)n2C)n1C` (centres undefined) was tested. Which Potency did it give?
Answer: The Potency was inconclusive: 79.4 µM [inhibitor, single point].

Question: How did the Potency turn out when `Cc1onc(-c2ccccc2)c1CNS(=O)(=O)c1cccc(Br)c1` was run?
Answer: The Potency was inconclusive: 100 µM [inhibitor, partial curve, poor fit].

Question: For `CCCNC(=S)NCCN1CCCCC1`, which Potency is on record?
Answer: Its Potency is active: 0.631 µM.

Question: With `COc1ccc(-c2nn3c(-c4ccc(C(C)(C)C)cc4)nnc3s2)cc1OC` as the compound, how does the Potency read?
Answer: Its Potency is inconclusive: 178 µM [inhibitor, partial curve, poor fit].

Question: How did the Potency turn out when `O=C(Cn1c(=O)[nH]c2ccccc2c1=O)N1CCN(c2ccccc2F)CC1` was run?
Answer: The Potency was “inactive”.

Question: With `C#C[C@]1(O)CCC2C3CCC4=Cc5oncc5CC4(C)C3CCC21C` (some centres undefined) as the compound, how does the Potency read?
Answer: Its Potency is inconclusive: 50.1 µM [inhibitor, partial curve].

Question: With `Cc1ccc(C(=O)N2CCCC(C(F)(F)F)C2)cc1S(=O)(=O)N1CCCCC1` (centres undefined) as the compound, how does the Potency read?
Answer: The Potency was inconclusive: 63.1 µM [inhibitor, partial curve, poor fit].

Question: With `COc1ccc(OC)c(C(=O)CSc2ccc(Cl)cc2)c1` as the compound, how does the Potency read?
Answer: The Potency was inconclusive: 35.5 µM [inhibitor, single point].

Question: How did the Potency turn out when `Cc1c(Cl)cnc(NC(=O)COC(=O)c2cc3c(s2)CCC(C)C3)c1Cl` (centres undefined) was run?
Answer: Its Potency is “inactive”.

Question: Which Potency does the source give for `CC(C)(C)NC(=O)C(c1ccc(C#N)cc1)n1c(=O)c(-c2ccco2)nc2ccccc21` (centres undefined) here?
Answer: The Potency was inconclusive: 56.2 µM [inhibitor, partial curve, poor fit].

Question: Which Potency does the source give for `COc1cccc(-c2cccc(COc3cnc4c(ccn4CC(=O)O)c3)c2)c1F` here?
Answer: The Potency was active: 50.1 µM.

Question: How did the Potency turn out when `CC(C)C(=O)N1CCC1(C)C(=O)Nc1ccc2cn[nH]c2c1` (centres undefined) was run?
Answer: The Potency was “inactive”.

Question: Which Potency does the source give for `COc1cc(NC(=O)c2cccc(Cl)c2)c(OC)cc1NC(=O)CN1CCOCC1` here?
Answer: The Potency was “inactive”.

Question: With `Cc1nn(-c2ccccc2)c2c1C(O)n1c(nc3ccccc31)S2` (centres undefined) as the compound, how does the Potency read?
Answer: The Potency was “inactive”.

Question: With `CCN(c1ccccc1)S(=O)(=O)c1ccc(NC(=S)NC(=O)c2ccc(Br)o2)cc1` as the compound, how does the Potency read?
Answer: The Potency was inconclusive: 4.47 µM [inhibitor, full curve, poor fit].

Question: `CN1CCN(CC#CC(C)(O)C2CC3C=CC2C3)CC1` (centres undefined) was tested. Which Potency did it give?
Answer: Its Potency is inconclusive: 28.2 µM [inhibitor, partial curve, poor fit].

Question: Which Potency does the source give for `COc1ccc(Nc2ncc(C(=O)N3CCN(c4ccc(OC)cc4)CC3)c3ccccc23)cc1` here?
Answer: Its Potency is inconclusive: 141 µM [inhibitor, partial curve, poor fit].

Question: For `O=C(Nc1ccc(C23CC4CC(CC(C4)C2)C3)cc1)c1cccc(Cl)c1`, which Potency is on record?
Answer: Its Potency is inconclusive: 158 µM [inhibitor, partial curve, poor fit].

Question: Which Potency does the source give for `CN(C)c1ccc(CN2CCc3nc(N4CCN(c5ccccn5)CC4)ncc3C2)cc1` here?
Answer: Its Potency is inconclusive: 39.8 µM [inhibitor, partial curve, poor fit].

Question: Which Potency does the source give for `O=C(Nc1ccccc1)C1=NO[C@@H]2CN(c3ccnc(N4CCOCC4)c3)C[C@H]12` here?
Answer: Its Potency is inconclusive: 100 µM [inhibitor, partial curve].

Question: For `COc1ccc(S(=O)(=O)N2CCC(NC(=O)Nc3ccc(C)cc3)CC2)cc1`, which Potency is on record?
Answer: Its Potency is “inactive”.

Question: How did the Potency turn out when `CCCS(=O)(=O)N1CC(N(C)Cc2cccnc2)C1` was run?
Answer: The Potency was “inactive”.

Question: For `Cc1ccc2nc(NC(=O)[C@H](C)N3C(=O)C4CC=CCC4C3=O)sc2c1` (some centres undefined), which Potency is on record?
Answer: Its Potency is inconclusive: 112 µM [inhibitor, single point].

Question: For `Cc1oc(-c2ccccc2)nc1CC(=O)N(C)c1ccccc1`, which Potency is on record?
Answer: The Potency was “inactive”.

Question: With `CC(C)N(Cc1ccccc1)C(=O)c1cc2ccc3cccnc3c2[nH]1` as the compound, how does the Potency read?
Answer: Its Potency is “inactive”.

Question: `CCCn1nc(C(=O)NCc2ccccc2)c2ccccc2c1=O` was tested. Which Potency did it give?
Answer: The Potency was “inactive”.

Question: With `CCN(CC)c1ccc(NC(=S)Nc2ccccc2)cc1` as the compound, how does the Potency read?
Answer: Its Potency is inconclusive: 44.7 µM [inhibitor, partial curve, poor fit].

Question: Which Potency does the source give for `COc1cc(O)c(C(CC(=O)N2CCCCC2)c2cc(OC)c(OC)c(OC)c2)c(OC)c1` (centres undefined) here?
Answer: The Potency was inconclusive: 4.47 µM [inhibitor, full curve, poor fit].

Question: How did the Potency turn out when `CCCNc1nc(-c2ccc(S(=O)(=O)N3CCCCCC3)cc2)cs1` was run?
Answer: The Potency was active: 31.6 µM.

Question: With `CCCCc1nc(-c2ccc(-c3ccc(C)cc3)nc2OC)no1` as the compound, how does the Potency read?
Answer: The Potency was “inactive”.

Question: How did the Potency turn out when `CCOc1ccccc1N1CC(c2nc3ccccc3n2CCCOc2ccccc2)CC1=O` (centres undefined) was run?
Answer: The Potency was inconclusive: 8.91 µM [inhibitor, full curve, poor fit].

Question: How did the Potency turn out when `O=Cc1ccc(C(=O)OCC(=O)N2CCCC2)cc1` was run?
Answer: The Potency was “inactive”.

Question: How did the Potency turn out when `O=C(c1ccc2nnc(-c3cccc(OC(F)(F)F)c3)n2c1)N1CCOCC1` was run?
Answer: The Potency was inconclusive: 100 µM [inhibitor, partial curve, poor fit].

Question: With `CC1C(=O)N(Cc2cn(CCC3OCCCO3)nn2)CCS(=O)(=O)N1Cc1ccc(-c2cccc(N(C)C)c2)cc1` (centres undefined) as the compound, how does the Potency read?
Answer: Its Potency is “inactive”.

Question: With `CCN1c2cc(C(=O)Nc3ccc(N(C)C)cc3)ccc2C(=O)N2CCCCC21` (centres undefined) as the compound, how does the Potency read?
Answer: Its Potency is inconclusive: 56.2 µM [inhibitor, single point].
